Test results: PubChem BioAssay AID1671190 (National Center for Advancing Translational Sciences (NCATS), 2021)
The campaign covered roughly 580,000 compounds. About 6,100 (1.1%) were called active. The shares of active, inactive and inconclusive entries below differ from those in the screen. The call rests on the fitted dose curve; in most records, active means well fitted inhibition curve with a large enough effect; inconclusive means small, poorly fitted or top-dose-only effect, or another doubt; inactive means no such curve, though single readings can be large or run the other way. A potency beside an inconclusive call is a rough fit, not a confirmed value.

Amino acid sequences for entries named in this document (tags omitted). A change or cut given only in a name is not applied to a line headed by its entry.
UniProt P18054: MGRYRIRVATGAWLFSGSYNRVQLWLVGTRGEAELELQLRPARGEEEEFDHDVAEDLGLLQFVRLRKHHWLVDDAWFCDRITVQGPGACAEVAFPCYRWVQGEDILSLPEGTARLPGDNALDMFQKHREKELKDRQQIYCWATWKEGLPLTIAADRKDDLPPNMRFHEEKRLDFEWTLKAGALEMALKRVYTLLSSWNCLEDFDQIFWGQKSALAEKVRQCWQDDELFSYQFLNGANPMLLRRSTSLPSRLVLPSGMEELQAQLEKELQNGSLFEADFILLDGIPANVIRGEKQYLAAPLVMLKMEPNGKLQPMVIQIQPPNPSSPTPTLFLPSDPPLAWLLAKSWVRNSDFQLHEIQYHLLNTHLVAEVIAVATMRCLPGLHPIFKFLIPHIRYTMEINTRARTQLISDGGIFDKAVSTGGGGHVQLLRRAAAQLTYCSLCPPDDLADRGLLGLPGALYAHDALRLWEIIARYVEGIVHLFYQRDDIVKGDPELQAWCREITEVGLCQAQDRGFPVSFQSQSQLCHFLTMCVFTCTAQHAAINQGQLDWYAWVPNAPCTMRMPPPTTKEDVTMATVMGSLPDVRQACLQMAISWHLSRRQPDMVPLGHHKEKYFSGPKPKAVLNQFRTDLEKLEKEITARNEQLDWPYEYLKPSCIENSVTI

Target: Polyunsaturated fatty acid lipoxygenase ALOX12 (Homo sapiens) (UniProt P18054)
Assay: Primary qHTS assay for inhibitors of human arachidonate 12S-lipoxygenase (ALOX12): Round 2
Details: purified 12hLO, xylenol orange hydroperoxide absorbance; activity change, negative = inhibition: at 108 µM (top of the series) unless noted
How it was run: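 Purified human 12hLO (150 nM final) in 25 mM Hepes, 0.01% Triton X-100, pH 7.0 was preincubated 15 min at room temperature with compound. Then 40 uM arachidonic acid was added, 30 min. Hydroperoxide was read by Fe-XO absorbance ratio 573/405 nm.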
On the % scale 0 is the no-effect control and ±100 the full control effect; potency means the concentration at half of the fitted maximal effect.

| SMILES | Potency | activity change, negative = inhibition |
| --- | --- | --- |
| CCCc1c(C)nc2ccc(C)cc2c1SCC(=O)O | inconclusive: 39.8 µM [inhibitor, single point] | – |
| O=C(NCc1ccccc1Br)c1ccc2c(c1)OCCO2 | – | inactive: 0% |
| COc1cc(OC)c2c(-c3ccccc3)cc(=O)oc2c1C(CCN1CCCC(C)C1)c1ccc2c(c1)OCO2 (stereo unspecified) | inconclusive: 50.1 µM [inhibitor, partial curve, poor fit] | – |
| C[C@@H]1O[C@@H](O[C@H]2[C@H](Oc3cc(O)c4c(c3)O[C@H](c3ccc(O)cc3)CC4=O)O[C@H](CO)[C@@H](O)[C@@H]2O)[C@H](O)[C@H](O)[C@H]1O | – | inactive: -7.09% |
| CCOc1ccccc1C1NC(=O)N(CC(=O)Nc2ccc(C)c(Cl)c2)C2=C1C(=O)OC2 (stereo unspecified) | inconclusive: 22.4 µM [inhibitor, full curve, poor fit] | – |
| O=C(COC(=O)Cn1[nH]c(=O)c2ccccc2c1=O)Nc1ncc(Cl)cc1Cl | inconclusive: 50.1 µM [inhibitor, partial curve, poor fit] | – |
| OCCOCCn1c(C2CCCN2c2nc(-c3ccc(F)cc3)cs2)nc2cc(Cl)c(Cl)cc21 (stereo unspecified) | – | inactive: -4.81% |
| CCC(CC)c1nnc(NC(=O)COc2ccc3c(c2)OCO3)s1 | inconclusive: 50.1 µM [inhibitor, partial curve, poor fit] | – |
| Cc1ccc(S(=O)(=O)N(C)CC(=O)Nc2ccccc2OC(F)(F)F)cc1 | inconclusive: 89.1 µM [inhibitor, single point] | – |
| CC1CN(Cc2ccccc2)C(=O)NC1=O (stereo unspecified) | – | inactive: 15.7% |
| COc1cccc(-c2ccc3ncnc(NCc4cccs4)c3c2)c1 | inconclusive: 5.01 µM [inhibitor, full curve, poor fit] | – |
| CCN1CCN(c2cc(C)c3cc(NC(=O)c4ccc5c(c4)OCO5)ccc3n2)CC1 | inconclusive: 44.7 µM [inhibitor, partial curve, poor fit] | – |
| CCn1c(=O)n(CC)c2cc(Sc3ccccc3)c(NC(=O)c3cccc(OC)c3)cc21 | inconclusive: 11.2 µM [inhibitor, single point] | – |
| CC(C)(CC(=O)O)CC(=O)N1Cc2[nH]cnc2C[C@H]1C(=O)N1CCCC1 | inconclusive: 31.6 µM [inhibitor, single point] | – |
| Cc1ccc(-c2cc(-c3n[nH]c(=S)o3)c3ccccc3n2)cc1 | active: 2.24 µM | – |
| Cc1oc2ccc(OCc3cccc(Cl)c3)cc2c1C(=O)O | inconclusive: 2.82 µM [inhibitor, full curve, poor fit] | – |
| Cc1ccnc2nc(C(=O)NC3=NCCS3)nn12 | inconclusive: 39.8 µM [inhibitor, partial curve, poor fit] | – |
| CO[C@@]12C[C@@H](COC(=O)c3cncc(Br)c3)CN(C)[C@H]1Cc1cn(C)c3cccc2c13 | inconclusive: 39.8 µM [inhibitor, partial curve, poor fit] | – |
| CCC1(c2ccc(F)cc2)NC(=O)N(CC(=O)N2CCN(S(=O)(=O)c3ccc(C)cc3C)CC2)C1=O (stereo unspecified) | – | inactive: 342% |
| O=C(Cn1c(SCCOc2ccc(Cl)cc2)nc2ccccc21)N1CCCCC1 | inconclusive: 0.282 µM [inhibitor, full curve, poor fit] | – |
| Cn1c(=O)[nH]c(=O)c2c1nc(NCc1ccco1)n2Cc1ccccc1 | inconclusive: 100 µM [inhibitor, single point] | – |

Arranged by count of non-hydrogen atoms (rising): part of the list above

| SMILES | Potency | activity change, negative = inhibition |
| --- | --- | --- |
| Cn1c(=O)[nH]c(=O)c2c1nc(NCc1ccco1)n2Cc1ccccc1 | inconclusive: 100 µM [inhibitor, single point] | – |
| CCOc1ccccc1C1NC(=O)N(CC(=O)Nc2ccc(C)c(Cl)c2)C2=C1C(=O)OC2 (stereo unspecified) | inconclusive: 22.4 µM [inhibitor, full curve, poor fit] | – |
| CCC1(c2ccc(F)cc2)NC(=O)N(CC(=O)N2CCN(S(=O)(=O)c3ccc(C)cc3C)CC2)C1=O (stereo unspecified) | – | inactive: 342% |

The list continues.

| SMILES | Potency | activity change, negative = inhibition |
| --- | --- | --- |
| CCOC(=O)C1=CCN(S(=O)(=O)c2cccc(Cl)c2)C1c1cccc(Cl)c1 (stereo unspecified) | inconclusive: 63.1 µM [inhibitor, partial curve, poor fit] | – |
| CC1=NOC2(CCN([S+](=O)([O-])c3cccc(C(F)(F)F)c3)C2)C1 (stereo unspecified) | – | inactive: 52% [at 176 µM] |
| O=C(CCSc1ccc(Cl)cc1)c1cccs1 | – | inactive: 5.2% |
| COC(=O)C1=C(C)OC(N)=C(C#N)C1c1ccccc1C (stereo unspecified) | inconclusive: 39.8 µM [inhibitor, partial curve, poor fit] | – |
| COC(=O)c1cc(C(=O)OCC(=O)c2ccc[nH]2)cc([N+](=O)[O-])c1 | inconclusive: 126 µM [inhibitor, partial curve, poor fit] | – |
| CCOC(=O)CSc1nnc(NCC(=O)OC)c(=O)[nH]1 | – | inactive: 4.25% |
| O=C(NCCO)c1ccc2c(c1)S(=O)(=O)c1ccccc1C2=O | – | inactive: -5.86% |
| Cc1cccc2c(=O)c(-c3cccc4ccccc34)c(N)oc12 | inconclusive: 56.2 µM [inhibitor, partial curve, poor fit] | – |
| COc1cccc(NCc2nnc(C(=O)N3CCC[C@@H]3C(c3ccccc3)c3ccccc3)n2-c2cccnc2)c1 | – | inactive: 27.2% |
| CCCCNC(=S)Nc1cc(S(=O)(=O)N2CCCCC2)ccc1C | inconclusive: 50.1 µM [inhibitor, partial curve, poor fit] | – |
| O=C(c1ccco1)N1CCN=C1SCc1cccc(Cl)c1 | – | inactive: -7.97% |
| CCN(C(=O)Cn1cnc2onc(-c3ccc(F)cc3)c2c1=O)c1ccc(OC)cc1 | inconclusive: 100 µM [inhibitor, single point] | – |
| C=CCN1C(C(=O)OC)CN(Cc2cn(Cc3ccc(OC)cc3)nn2)CCS1(=O)=O (stereo unspecified) | inconclusive: 35.5 µM [inhibitor, partial curve, poor fit] | – |
| CC1(C)C(=O)Nc2ccccc2N1C(=O)COC(=O)c1cccs1 | inconclusive: 100 µM [inhibitor, partial curve, poor fit] | – |
| CCOC(=O)C(CCc1nnc(N)s1)C(=O)OCC | – | inactive: 26.3% |
| COc1ccccc1-c1c(C(F)(F)F)oc2c(CN(C)C)c(O)ccc2c1=O | inconclusive: 89.1 µM [inhibitor, single point] | – |
| COc1ccc(Cc2nnc(SC(C)c3nc4ccccc4c(=O)[nH]3)n2N)cc1 (stereo unspecified) | inconclusive: 35.5 µM [inhibitor, partial curve, poor fit] | – |
| O=C(CCCNC(=O)/C(=C\c1ccccc1F)NC(=O)c1ccccc1)OCc1ccccc1 | – | inactive: 5.21% |
| COc1cc(OC)c(OC)cc1CN1CCC(O)CC1 | inconclusive: 3.55 µM [inhibitor, partial curve, poor fit] | – |
| Cc1cc(C)c2nc(NC(=O)c3ccc(S(=O)(=O)N4CCc5ccccc54)cc3)sc2c1 | inconclusive: 56.2 µM [inhibitor, partial curve, poor fit] | – |
